Our source for the binding values is paper PMC10741959.

Amino acid sequences for entries named in this document (tags omitted). A change or cut given only in a name is not applied to a line headed by its entry.
UniProt Q9NZ71: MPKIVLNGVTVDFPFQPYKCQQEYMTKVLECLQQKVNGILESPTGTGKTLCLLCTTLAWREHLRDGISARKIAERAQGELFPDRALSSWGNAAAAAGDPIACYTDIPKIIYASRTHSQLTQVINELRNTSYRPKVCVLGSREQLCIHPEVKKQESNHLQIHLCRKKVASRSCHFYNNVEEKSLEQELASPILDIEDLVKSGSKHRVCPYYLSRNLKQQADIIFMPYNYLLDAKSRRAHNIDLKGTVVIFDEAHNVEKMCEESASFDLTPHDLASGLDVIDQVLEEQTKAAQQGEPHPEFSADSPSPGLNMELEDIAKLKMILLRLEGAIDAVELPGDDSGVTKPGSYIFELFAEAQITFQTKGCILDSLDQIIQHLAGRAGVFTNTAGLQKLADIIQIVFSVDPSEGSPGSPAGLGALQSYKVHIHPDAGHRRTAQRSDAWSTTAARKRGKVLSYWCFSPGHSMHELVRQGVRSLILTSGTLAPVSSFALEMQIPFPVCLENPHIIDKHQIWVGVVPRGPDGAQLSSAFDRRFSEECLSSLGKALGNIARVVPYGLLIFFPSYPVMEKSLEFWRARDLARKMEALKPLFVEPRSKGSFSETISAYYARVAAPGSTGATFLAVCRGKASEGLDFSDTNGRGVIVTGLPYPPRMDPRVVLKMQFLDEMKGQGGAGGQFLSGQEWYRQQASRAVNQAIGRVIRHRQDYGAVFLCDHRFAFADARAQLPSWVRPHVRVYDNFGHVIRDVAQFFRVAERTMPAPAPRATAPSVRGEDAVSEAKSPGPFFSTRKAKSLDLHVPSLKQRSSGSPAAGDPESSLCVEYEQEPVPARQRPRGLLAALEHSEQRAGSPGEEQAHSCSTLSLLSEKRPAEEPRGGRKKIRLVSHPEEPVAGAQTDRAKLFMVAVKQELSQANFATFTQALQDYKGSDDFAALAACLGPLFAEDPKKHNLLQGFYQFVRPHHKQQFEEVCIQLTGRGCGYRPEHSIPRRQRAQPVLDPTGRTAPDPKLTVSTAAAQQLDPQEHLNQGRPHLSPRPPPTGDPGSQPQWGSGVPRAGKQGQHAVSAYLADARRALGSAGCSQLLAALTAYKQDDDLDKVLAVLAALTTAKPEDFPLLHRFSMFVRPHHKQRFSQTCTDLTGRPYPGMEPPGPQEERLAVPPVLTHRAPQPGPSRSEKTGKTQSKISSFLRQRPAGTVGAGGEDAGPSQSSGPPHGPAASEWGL
UniProt P49790: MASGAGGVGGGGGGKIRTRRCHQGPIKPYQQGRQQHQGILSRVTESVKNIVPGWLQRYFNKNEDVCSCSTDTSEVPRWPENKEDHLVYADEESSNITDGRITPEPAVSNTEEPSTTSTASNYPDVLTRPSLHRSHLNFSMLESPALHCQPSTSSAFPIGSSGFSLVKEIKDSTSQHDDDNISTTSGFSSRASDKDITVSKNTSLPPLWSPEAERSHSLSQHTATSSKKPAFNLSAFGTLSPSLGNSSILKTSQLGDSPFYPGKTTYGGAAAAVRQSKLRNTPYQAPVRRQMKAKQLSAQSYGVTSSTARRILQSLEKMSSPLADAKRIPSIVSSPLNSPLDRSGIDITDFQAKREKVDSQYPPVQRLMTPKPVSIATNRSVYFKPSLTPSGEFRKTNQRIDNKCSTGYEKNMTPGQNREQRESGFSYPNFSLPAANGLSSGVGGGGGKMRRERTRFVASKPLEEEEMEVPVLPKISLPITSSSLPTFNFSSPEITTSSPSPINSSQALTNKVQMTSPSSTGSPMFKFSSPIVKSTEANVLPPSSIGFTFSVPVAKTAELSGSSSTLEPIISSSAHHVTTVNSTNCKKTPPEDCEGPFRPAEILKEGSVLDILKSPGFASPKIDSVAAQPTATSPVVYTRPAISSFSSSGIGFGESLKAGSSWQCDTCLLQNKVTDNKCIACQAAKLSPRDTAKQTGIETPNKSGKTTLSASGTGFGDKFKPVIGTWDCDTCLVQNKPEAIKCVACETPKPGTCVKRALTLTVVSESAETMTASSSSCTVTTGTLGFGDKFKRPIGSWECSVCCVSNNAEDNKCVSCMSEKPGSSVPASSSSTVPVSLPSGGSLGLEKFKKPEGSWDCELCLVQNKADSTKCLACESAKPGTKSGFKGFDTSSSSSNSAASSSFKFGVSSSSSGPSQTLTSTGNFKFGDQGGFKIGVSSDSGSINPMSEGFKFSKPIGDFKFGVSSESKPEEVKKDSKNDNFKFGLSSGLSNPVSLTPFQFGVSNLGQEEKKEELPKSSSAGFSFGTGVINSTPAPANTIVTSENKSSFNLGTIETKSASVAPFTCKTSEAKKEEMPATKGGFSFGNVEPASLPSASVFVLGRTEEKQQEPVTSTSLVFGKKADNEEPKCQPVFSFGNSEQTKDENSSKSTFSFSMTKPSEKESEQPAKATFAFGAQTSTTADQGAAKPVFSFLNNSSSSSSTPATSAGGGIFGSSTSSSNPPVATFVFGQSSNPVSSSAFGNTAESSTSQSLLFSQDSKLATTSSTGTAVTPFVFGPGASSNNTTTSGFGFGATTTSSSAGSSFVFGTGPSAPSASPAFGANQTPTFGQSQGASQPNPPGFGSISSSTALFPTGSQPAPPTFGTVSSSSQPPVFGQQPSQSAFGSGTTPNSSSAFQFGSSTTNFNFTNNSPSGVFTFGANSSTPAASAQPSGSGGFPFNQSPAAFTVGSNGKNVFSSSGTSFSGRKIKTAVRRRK

Experiment [1] concerns the target RTEL1 (Regulator of TElomere Length Helicase 1), endogenous (human (endogenous in HeLa and 293T)) (UniProt Q9NZ71). Put plainly: co-IP; 293T cells transiently transfected with GFP-tagged N-terminal fragments of NUP153; immunoprecipitation with anti-RTEL1, blot with anti-GFP.
Experiment [2] shares this target. Put plainly: co-IP; anti-RTEL1 immunoprecipitation from HeLa lysates, both proteins endogenous; cells synchronised in G1/S, treated or not with importazole (40 μM, 3 h), released into S-phase for 1 h; blot with mAb414 and anti-RTEL1.

Results are given in words; binding and its absence hold for the method and conditions named. Binding seen in cells or lysates may run through a third protein. Binding calls can cover weak binding; strength is not graded here.

For the substance “GFP-tagged N-terminal fragment of NUP153 (aa 1-434) (from UniProt P49790 1-434) (domain or fragment)”, in experiment [1], the binding entry is “binds”. Take “NUP153, endogenous (from UniProt P49790 1-1475)”: the binding result in experiment [2] was “binds”.
